Reference: paper PMC8483321
These are yes or no findings as the source states them, for the method shown. Binding seen in cells or lysates may run through a third protein. Some binding calls cover weakened binding; strength is not graded here.

Sequences of proteins named here, by UniProt entry; tags and fusion partners are left off. A change or cut given only in a name is not applied to a line headed by its entry. A line that says so, or that is headed by a name, gives the form on record, which may keep a tag or linker. Residues count along the entry.
UniProt Q92560: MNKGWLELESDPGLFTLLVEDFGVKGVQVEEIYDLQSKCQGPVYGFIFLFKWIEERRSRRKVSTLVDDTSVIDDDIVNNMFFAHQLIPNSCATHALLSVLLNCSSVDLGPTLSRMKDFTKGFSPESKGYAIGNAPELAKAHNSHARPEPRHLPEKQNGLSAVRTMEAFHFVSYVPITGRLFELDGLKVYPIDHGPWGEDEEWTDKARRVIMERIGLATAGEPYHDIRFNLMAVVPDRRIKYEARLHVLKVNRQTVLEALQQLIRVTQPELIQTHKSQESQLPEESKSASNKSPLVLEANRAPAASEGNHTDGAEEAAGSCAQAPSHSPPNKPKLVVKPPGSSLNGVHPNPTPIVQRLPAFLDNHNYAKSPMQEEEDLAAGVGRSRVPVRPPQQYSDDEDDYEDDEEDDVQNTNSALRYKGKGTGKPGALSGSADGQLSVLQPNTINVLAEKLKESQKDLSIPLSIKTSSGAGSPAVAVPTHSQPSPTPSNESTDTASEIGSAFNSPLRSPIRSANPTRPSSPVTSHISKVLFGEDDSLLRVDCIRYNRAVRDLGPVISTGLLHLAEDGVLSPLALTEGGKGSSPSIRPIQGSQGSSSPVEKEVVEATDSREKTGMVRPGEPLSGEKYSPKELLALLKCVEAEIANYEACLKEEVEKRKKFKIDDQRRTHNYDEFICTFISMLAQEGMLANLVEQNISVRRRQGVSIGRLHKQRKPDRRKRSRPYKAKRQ
GFP-BAP1 SASRQ (Q92560, form named): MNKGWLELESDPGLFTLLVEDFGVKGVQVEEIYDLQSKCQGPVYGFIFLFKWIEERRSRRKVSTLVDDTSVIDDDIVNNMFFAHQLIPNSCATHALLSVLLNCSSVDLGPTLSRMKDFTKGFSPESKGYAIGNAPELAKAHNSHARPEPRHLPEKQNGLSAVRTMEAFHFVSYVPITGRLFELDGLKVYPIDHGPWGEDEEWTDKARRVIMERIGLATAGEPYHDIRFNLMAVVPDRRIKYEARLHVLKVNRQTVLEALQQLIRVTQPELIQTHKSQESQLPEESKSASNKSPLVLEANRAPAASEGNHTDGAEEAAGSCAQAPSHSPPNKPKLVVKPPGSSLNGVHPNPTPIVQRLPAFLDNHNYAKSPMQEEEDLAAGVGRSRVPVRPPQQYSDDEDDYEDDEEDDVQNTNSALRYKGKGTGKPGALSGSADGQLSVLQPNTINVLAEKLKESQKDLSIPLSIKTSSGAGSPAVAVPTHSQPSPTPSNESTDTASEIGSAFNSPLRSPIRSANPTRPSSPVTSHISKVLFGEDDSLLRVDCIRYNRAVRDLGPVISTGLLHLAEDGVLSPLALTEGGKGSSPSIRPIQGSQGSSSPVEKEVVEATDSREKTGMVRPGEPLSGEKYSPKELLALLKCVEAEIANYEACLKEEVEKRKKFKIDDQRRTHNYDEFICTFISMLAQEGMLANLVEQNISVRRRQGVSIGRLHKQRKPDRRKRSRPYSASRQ
UniProt O14579, residues 2-308: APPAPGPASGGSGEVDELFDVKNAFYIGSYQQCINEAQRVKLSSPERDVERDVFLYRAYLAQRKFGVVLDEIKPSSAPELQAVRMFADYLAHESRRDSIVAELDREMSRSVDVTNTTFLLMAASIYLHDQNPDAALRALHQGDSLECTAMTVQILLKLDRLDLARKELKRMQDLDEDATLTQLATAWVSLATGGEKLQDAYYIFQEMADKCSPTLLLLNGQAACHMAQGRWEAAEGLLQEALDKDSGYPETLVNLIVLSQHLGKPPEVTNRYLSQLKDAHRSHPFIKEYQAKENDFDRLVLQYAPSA

What was measured:
[1] = biological target: BAP1, endogenous (HeLa FRT) (human (endogenous in HeLa)) (UniProt Q92560); assay: co-IP; endogenous BAP1 precipitated overnight at 4°C with different BAP1 antibodies (normal IgG as negative control), SureBeads Protein G Magnetic beads, ethidium bromide present, washes in WCE buffer; HeLa FRT wt cell lysate; immunoblot for COPA
GFP-COPE = GFP-COPE (UniProt O14579); assay: co-IP; GFP-Trap agarose beads, 20 min at 4°C with ethidium bromide, washes in WCE buffer; lysates of HeLa cells expressing GFP-BAP1 wt, GFP-BAP1 SASRQ or GFP-COPE; lysates supplemented with CAA or DTT as indicated (Fig 5B, C); mock or GFP immunoprecipitation; immunoblot
GFP-BAP1 SASRQ = GFP-BAP1 SASRQ (UniProt Q92560); assay: as above
[2] = biological target: (N)GFP-FLAG-BAP1 fusion protein (BRCA1-associated protein 1, full-length) (UniProt Q92560); assay: as above

Measured: binding

B1: COPA (protein, UniProt P53621 1-1224)
chain: MLTKFETKSARVKGLSFHPKRPWILTSLHNGVIQLWDYRMCTLIDKFDEHDGPVRGIDFHKQQPLFVSGGDDYKIKVWNYKLRRCLFTLLGHLDYIRTTFFHHEYPWILSASDDQTIRVWNWQSRTCVCVLTGHNHYVMCAQFHPTEDLVVSASLDQTVRVWDISGLRKKNLSPGAVESDVRGITGVDLFGTTDAVVKHVLEGHDRGVNWAAFHPTMPLIVSGADDRQVKIWRMNESKAWEVDTCRGHYNNVSCAVFHPRQELILSNSEDKSIRVWDMSKRTGVQTFRRDHDRFWVLAAHPNLNLFAAGHDGGMIVFKLERERPAYAVHGNMLHYVKDRFLRQLDFNSSKDVAVMQLRSGSKFPVFNMSYNPAENAVLLCTRASNLENSTYDLYTIPKDADSQNPDAPEGKRSSGLTAVWVARNRFAVLDRMHSLLIKNLKNEITKKVQVPNCDEIFYAGTGNLLLRDADSITLFDVQQKRTLASVKISKVKYVIWSADMSHVALLAKHAIVICNRKLDALCNIHENIRVKSGAWDESGVFIYTTSNHIKYAVTTGDHGIIRTLDLPIYVTRVKGNNVYCLDRECRPRVLTIDPTEFKFKLALINRKYDEVLHMVRNAKLVGQSIIAYLQKKGYPEVALHFVKDEKTRFSLALECGNIEIALEAAKALDDKNCWEKLGEVALLQGNHQIVEMCYQRTKNFDKLSFLYLITGNLEKLRKMMKIAEIRKDMSGHYQNALYLGDVSERVRILKNCGQKSLAYLTAATHGLDEEAESLKETFDPEKETIPDIDPNAKLLQPPAPIMPLDTNWPLLTVSKGFFEGTIASKGKGGALAADIDIDTVGTEGWGEDAELQLDEDGFVEATEGLGDDALGKGQEEGGGWDVEEDLELPPELDISPGAAGGAEDGFFVPPTKGTSPTQIWCNNSQLPVDHILAGSFETAMRLLHDQVGVIQFGPYKQLFLQTYARGRTTYQALPCLPSMYGYPNRNWKDAGLKNGVPAVGLKLNDLIQRLQLCYQLTTVGKFEEAVEKFRSILLSVPLLVVDNKQEIAEAQQLITICREYIVGLSVETERKKLPKETLEQQKRICEMAAYFTHSNLQPVHMILVLRTALNLFFKLKNFKTAATFARRLLELGPKPEVAQQTRKILSACEKNPTDAYQLNYDMHNPFDICAASYRPIYRGKPVEKCPLSGACYSPEFKGQICRVTTVTEIGKDVIGLRISPLQFR
binds: all assays above
